According to the supplement of paper PMC6411743:
± gives the standard deviation of the averaged measurements. This is a selection; strong and weak results do not stand in their true shares.

Protein sequences, listed by entry. Tags and fused reporters are not part of them. Lines headed by an entry give the natural chain unless they say otherwise; changes in a name come on top.
UniProt P00519, whole entry: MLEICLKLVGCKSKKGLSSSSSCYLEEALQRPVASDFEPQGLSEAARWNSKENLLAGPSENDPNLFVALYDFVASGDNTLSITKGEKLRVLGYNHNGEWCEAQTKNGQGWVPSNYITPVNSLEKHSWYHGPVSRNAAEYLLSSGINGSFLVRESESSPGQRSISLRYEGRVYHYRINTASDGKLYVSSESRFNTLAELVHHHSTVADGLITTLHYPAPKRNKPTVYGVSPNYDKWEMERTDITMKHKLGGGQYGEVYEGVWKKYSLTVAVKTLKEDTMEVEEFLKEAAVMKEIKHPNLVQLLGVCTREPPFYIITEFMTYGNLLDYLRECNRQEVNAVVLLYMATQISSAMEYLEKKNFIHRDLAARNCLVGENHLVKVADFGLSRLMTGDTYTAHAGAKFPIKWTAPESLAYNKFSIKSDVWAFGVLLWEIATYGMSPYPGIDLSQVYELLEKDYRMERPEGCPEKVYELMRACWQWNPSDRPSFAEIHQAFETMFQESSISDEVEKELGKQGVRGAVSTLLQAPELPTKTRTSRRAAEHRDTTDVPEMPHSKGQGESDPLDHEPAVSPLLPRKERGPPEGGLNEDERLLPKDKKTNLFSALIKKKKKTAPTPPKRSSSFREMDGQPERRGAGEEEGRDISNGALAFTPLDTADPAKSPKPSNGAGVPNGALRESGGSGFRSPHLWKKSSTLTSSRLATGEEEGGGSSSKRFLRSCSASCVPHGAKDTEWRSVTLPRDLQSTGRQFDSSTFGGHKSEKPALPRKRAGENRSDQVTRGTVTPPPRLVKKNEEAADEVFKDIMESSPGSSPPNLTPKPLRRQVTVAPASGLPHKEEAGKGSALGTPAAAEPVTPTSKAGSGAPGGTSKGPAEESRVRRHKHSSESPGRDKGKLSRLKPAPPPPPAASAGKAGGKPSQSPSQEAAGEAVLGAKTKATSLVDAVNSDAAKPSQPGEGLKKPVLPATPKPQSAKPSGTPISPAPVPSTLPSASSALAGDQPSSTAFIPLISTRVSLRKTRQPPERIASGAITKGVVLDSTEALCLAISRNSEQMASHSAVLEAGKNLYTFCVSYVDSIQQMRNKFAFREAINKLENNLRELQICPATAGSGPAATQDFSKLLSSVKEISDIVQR
UniProt O95777: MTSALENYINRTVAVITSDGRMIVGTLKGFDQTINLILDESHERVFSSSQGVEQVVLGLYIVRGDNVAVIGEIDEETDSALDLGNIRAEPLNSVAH
UniProt P15056, whole entry: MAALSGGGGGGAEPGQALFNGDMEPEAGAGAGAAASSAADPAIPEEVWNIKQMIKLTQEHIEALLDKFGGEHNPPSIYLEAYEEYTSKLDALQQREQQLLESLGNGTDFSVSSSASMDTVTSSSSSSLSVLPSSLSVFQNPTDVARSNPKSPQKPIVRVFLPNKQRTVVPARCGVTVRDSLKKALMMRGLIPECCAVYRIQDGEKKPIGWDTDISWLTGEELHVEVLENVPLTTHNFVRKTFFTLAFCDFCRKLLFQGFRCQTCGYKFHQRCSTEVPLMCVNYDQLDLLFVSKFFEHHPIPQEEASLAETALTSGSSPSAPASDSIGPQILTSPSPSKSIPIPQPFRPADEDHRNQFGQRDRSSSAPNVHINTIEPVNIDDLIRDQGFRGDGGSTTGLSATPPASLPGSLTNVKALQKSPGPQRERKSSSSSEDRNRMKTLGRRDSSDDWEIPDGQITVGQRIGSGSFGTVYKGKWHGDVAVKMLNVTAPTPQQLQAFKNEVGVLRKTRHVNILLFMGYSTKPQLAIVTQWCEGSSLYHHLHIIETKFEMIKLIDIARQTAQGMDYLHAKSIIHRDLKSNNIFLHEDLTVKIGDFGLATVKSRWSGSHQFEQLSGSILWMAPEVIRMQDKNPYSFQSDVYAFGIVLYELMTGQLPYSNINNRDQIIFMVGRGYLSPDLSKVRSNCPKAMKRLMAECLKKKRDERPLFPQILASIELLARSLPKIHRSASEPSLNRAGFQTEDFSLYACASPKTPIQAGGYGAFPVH
UniProt P00966: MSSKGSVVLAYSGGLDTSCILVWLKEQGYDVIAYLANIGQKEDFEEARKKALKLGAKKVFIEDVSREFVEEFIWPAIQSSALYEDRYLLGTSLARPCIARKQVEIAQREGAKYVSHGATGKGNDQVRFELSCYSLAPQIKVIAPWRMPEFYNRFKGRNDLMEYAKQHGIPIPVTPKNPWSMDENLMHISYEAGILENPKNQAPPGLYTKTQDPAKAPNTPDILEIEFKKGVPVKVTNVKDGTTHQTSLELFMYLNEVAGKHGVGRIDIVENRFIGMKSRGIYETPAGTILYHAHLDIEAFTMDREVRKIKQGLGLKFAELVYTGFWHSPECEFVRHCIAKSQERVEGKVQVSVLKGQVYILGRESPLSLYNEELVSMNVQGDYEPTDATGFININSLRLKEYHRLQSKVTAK
UniProt P14927: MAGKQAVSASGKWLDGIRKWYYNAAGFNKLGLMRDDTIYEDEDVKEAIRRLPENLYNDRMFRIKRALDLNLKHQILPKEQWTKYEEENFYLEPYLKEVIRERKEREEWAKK
UniProt P00441, whole entry: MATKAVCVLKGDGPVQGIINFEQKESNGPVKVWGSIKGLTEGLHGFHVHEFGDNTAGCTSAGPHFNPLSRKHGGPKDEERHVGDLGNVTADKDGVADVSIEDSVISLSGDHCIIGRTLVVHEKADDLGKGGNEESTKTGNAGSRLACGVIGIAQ
UniProt P13807: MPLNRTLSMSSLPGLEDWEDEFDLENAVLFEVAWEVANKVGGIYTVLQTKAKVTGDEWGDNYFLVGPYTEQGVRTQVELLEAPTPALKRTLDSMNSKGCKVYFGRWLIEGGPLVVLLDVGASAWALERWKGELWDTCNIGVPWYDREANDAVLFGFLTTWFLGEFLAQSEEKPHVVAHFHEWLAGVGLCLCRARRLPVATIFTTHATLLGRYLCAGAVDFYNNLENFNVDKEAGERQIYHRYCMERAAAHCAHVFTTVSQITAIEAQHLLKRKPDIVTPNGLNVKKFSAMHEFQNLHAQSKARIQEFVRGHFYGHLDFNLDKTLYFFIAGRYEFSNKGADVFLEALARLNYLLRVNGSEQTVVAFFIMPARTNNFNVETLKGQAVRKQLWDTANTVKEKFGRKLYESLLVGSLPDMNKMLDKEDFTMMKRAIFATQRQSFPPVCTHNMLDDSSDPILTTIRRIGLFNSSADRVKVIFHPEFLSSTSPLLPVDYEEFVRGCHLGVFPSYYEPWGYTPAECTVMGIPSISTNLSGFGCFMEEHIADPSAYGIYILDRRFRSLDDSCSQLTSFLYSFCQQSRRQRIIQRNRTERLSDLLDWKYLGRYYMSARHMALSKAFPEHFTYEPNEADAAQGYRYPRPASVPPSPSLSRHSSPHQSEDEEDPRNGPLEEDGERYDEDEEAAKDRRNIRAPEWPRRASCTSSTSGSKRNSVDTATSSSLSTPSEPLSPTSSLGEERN
UniProt P04424, whole entry: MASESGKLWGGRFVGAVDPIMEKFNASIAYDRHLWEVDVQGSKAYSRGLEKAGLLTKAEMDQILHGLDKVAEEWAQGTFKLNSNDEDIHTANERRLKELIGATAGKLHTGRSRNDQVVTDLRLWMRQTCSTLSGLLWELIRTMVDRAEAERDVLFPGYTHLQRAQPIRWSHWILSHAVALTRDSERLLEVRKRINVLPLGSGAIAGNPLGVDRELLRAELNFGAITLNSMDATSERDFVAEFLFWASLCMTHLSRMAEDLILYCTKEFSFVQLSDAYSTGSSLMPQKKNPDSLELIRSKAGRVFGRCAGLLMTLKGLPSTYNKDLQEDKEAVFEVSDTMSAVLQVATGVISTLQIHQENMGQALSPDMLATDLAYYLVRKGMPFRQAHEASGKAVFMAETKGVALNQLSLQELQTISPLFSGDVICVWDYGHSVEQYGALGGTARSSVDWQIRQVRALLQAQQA
UniProt O95757: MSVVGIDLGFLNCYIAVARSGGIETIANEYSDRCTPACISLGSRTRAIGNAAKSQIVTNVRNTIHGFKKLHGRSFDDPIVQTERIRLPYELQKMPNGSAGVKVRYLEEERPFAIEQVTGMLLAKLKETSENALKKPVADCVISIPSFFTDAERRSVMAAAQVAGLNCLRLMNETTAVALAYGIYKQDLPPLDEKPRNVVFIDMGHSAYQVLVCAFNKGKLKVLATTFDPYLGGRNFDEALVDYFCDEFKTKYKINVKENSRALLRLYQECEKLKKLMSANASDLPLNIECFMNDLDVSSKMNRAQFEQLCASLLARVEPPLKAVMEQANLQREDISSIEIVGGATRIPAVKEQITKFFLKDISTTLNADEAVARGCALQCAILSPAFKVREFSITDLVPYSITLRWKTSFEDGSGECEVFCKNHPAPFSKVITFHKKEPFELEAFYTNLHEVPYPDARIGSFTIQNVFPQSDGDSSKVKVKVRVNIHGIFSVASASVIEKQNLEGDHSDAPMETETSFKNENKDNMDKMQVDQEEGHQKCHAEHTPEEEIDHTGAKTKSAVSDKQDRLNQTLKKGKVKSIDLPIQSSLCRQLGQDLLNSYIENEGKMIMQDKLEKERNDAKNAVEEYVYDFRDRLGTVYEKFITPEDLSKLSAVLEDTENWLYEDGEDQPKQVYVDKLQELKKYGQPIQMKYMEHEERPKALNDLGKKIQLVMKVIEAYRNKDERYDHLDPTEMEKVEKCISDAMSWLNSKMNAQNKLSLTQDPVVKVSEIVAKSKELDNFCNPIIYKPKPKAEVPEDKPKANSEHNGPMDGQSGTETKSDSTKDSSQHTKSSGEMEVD
UniProt O95857: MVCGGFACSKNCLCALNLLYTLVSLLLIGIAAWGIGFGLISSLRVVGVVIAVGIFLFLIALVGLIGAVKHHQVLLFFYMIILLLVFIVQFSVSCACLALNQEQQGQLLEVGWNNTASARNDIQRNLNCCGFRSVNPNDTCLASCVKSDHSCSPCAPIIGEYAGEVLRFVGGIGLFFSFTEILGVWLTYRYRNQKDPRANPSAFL
UniProt P12081: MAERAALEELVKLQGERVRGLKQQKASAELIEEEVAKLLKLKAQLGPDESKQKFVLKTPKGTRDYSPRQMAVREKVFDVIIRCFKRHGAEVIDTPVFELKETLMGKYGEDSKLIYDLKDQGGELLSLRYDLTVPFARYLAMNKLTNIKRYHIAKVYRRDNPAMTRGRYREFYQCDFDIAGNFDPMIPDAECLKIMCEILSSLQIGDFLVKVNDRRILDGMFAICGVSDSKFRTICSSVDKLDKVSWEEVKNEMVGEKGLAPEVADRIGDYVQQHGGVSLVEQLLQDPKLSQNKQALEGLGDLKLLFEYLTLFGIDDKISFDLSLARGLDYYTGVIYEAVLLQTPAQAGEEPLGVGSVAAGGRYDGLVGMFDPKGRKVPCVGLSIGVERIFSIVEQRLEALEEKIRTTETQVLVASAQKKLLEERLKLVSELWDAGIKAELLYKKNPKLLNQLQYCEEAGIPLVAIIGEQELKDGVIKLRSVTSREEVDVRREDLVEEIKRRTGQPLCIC
UniProt P13995: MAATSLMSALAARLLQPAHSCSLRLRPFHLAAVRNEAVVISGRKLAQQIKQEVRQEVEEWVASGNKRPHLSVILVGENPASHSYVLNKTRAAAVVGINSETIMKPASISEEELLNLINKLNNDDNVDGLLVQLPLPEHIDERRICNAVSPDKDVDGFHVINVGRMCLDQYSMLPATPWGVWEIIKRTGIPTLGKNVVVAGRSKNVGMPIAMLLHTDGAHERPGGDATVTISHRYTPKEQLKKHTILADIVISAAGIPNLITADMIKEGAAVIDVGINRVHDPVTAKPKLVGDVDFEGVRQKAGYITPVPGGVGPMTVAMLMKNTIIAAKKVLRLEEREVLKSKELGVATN
UniProt P08236: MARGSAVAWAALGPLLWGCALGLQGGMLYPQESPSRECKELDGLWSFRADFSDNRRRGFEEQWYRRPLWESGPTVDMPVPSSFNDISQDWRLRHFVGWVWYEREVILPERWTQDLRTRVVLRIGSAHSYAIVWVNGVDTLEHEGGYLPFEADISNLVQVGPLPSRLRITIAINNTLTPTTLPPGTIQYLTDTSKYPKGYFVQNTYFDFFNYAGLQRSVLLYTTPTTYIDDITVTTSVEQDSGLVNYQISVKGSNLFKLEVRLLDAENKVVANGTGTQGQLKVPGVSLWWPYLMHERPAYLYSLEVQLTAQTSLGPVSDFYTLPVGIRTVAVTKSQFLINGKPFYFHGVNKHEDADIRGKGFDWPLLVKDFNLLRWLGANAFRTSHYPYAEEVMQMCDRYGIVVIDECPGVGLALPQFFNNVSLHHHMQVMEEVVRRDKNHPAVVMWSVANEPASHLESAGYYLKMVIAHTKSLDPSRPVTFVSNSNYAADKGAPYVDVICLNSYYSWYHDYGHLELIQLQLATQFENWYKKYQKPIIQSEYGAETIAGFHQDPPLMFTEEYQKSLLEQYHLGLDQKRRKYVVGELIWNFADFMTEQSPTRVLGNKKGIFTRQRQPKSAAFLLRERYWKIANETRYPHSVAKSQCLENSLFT

Compound: Nc1ncnc2c1ncn2[C@@H]1O[C@H](COP(=O)(O)OP(=O)(O)NP(=O)(O)O)[C@@H](O)[C@H]1O [adenylyl imidodiphosphate]
Assay: NP40-soluble protein abundance relative to vehicle (solubility fold change) (ratio); higher = more soluble protein in presence of AMP-PNP
Procedure, shortened: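 Jurkat crude lysate prepared with a Dounce homogeniser was treated at eight concentrations spanning 0.1 to 10 mM, 10 min at room temperature then 3 min at 37 °C. Solubilisation with 0.8% NP40 and benzonase and ultracentrifugation preceded TMT labelling of the supernatant for LC-MS/MS. Fold change against the detergent-processed vehicle was determined per replicate from vsn-normalised intensities, across three independent experiments.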

UniProt P00519 and related entries
NP40-soluble protein abundance (concentration: 1mM): 1.03 ± 0.034 | NP40-soluble protein abundance (concentration: 2mM): 1.07 ± 0.023 | NP40-soluble protein abundance (concentration: 4mM): 1.07 ± 0.035 | NP40-soluble protein abundance (concentration: 6mM): 1.06 ± 0.056 | NP40-soluble protein abundance (concentration: 8mM): 1.06 ± 0.035 | NP40-soluble protein abundance (concentration: 10mM): 1.11 ± 0.027

FDX1 (UniProt P10109)
NP40-soluble protein abundance (concentration: 1mM): 0.974 ± 0.028 | NP40-soluble protein abundance (concentration: 2mM): 0.979 ± 0.034 | NP40-soluble protein abundance (concentration: 4mM): 0.943 ± 0.053 | NP40-soluble protein abundance (concentration: 6mM): 0.945 ± 0.032 | NP40-soluble protein abundance (concentration: 8mM): 0.897 ± 0.06 | NP40-soluble protein abundance (concentration: 10mM): 0.916 ± 0.054

UniProt O95777 and related entries
NP40-soluble protein abundance (concentration: 1mM): 0.96 ± 0.022 | NP40-soluble protein abundance (concentration: 2mM): 0.962 ± 0.036 | NP40-soluble protein abundance (concentration: 4mM): 0.993 ± 0.013 | NP40-soluble protein abundance (concentration: 6mM): 0.966 ± 0.015 | NP40-soluble protein abundance (concentration: 8mM): 1.01 ± 0.042 | NP40-soluble protein abundance (concentration: 10mM): 0.97 ± 0.049

UniProt P15056 and related entries
NP40-soluble protein abundance (concentration: 1mM): 1.04 ± 0.036 | NP40-soluble protein abundance (concentration: 2mM): 1.02 ± 0.011 | NP40-soluble protein abundance (concentration: 4mM): 0.971 ± 0.022 | NP40-soluble protein abundance (concentration: 6mM): 1.01 ± 0.056 | NP40-soluble protein abundance (concentration: 8mM): 0.994 ± 0.018 | NP40-soluble protein abundance (concentration: 10mM): 0.976 ± 0.013

ASS1 (UniProt P00966)
NP40-soluble protein abundance (concentration: 1mM): 1.02 ± 0.059 | NP40-soluble protein abundance (concentration: 2mM): 0.923 ± 0.1 | NP40-soluble protein abundance (concentration: 4mM): 0.966 ± 0.04 | NP40-soluble protein abundance (concentration: 6mM): 0.961 ± 0.029 | NP40-soluble protein abundance (concentration: 8mM): 0.963 ± 0.023 | NP40-soluble protein abundance (concentration: 10mM): 0.939 ± 0.037

ATXN1L (UniProt P0C7T5)
NP40-soluble protein abundance (concentration: 1mM): 1.02 ± 0.016 | NP40-soluble protein abundance (concentration: 2mM): 1.02 ± 0.022 | NP40-soluble protein abundance (concentration: 4mM): 1.03 ± 0.013 | NP40-soluble protein abundance (concentration: 6mM): 1.02 ± 0.03 | NP40-soluble protein abundance (concentration: 8mM): 1 ± 0.016 | NP40-soluble protein abundance (concentration: 10mM): 1.02 ± 0.021

UQCRB (UniProt P14927)
NP40-soluble protein abundance (concentration: 1mM): 0.9813 ± 0.003 | NP40-soluble protein abundance (concentration: 2mM): 1.07 ± 0.082 | NP40-soluble protein abundance (concentration: 4mM): 0.954 ± 0.025 | NP40-soluble protein abundance (concentration: 6mM): 0.969 ± 0.018 | NP40-soluble protein abundance (concentration: 8mM): 0.935 ± 0.0015 | NP40-soluble protein abundance (concentration: 10mM): 0.933 ± 0.023

UniProt P00441 and related entries
NP40-soluble protein abundance (concentration: 1mM): 0.867 ± 0.15 | NP40-soluble protein abundance (concentration: 2mM): 1.17 ± 0.17 | NP40-soluble protein abundance (concentration: 4mM): 0.809 ± 0.086 | NP40-soluble protein abundance (concentration: 6mM): 1.05 ± 0.11 | NP40-soluble protein abundance (concentration: 8mM): 0.858 ± 0.12 | NP40-soluble protein abundance (concentration: 10mM): 0.972 ± 0.11

UniProt P13807 and related entries
NP40-soluble protein abundance (concentration: 1mM): 0.947 ± 0.11 | NP40-soluble protein abundance (concentration: 2mM): 0.922 ± 0.065 | NP40-soluble protein abundance (concentration: 4mM): 0.895 ± 0.096 | NP40-soluble protein abundance (concentration: 6mM): 0.867 ± 0.14 | NP40-soluble protein abundance (concentration: 8mM): 0.876 ± 0.098 | NP40-soluble protein abundance (concentration: 10mM): 0.863 ± 0.16

UniProt P04424 and related entries
NP40-soluble protein abundance (concentration: 1mM): 1.01 ± 0.033 | NP40-soluble protein abundance (concentration: 2mM): 1 ± 0.028 | NP40-soluble protein abundance (concentration: 4mM): 1.02 ± 0.047 | NP40-soluble protein abundance (concentration: 6mM): 0.98 ± 0.025 | NP40-soluble protein abundance (concentration: 8mM): 0.978 ± 0.025 | NP40-soluble protein abundance (concentration: 10mM): 0.992 ± 0.024

HSPA4L (UniProt O95757)
NP40-soluble protein abundance (concentration: 1mM): 1.03 ± 0.03 | NP40-soluble protein abundance (concentration: 2mM): 1.04 ± 0.036 | NP40-soluble protein abundance (concentration: 4mM): 1.01 ± 0.012 | NP40-soluble protein abundance (concentration: 6mM): 1.01 ± 0.024 | NP40-soluble protein abundance (concentration: 8mM): 0.987 ± 0.037 | NP40-soluble protein abundance (concentration: 10mM): 0.995 ± 0.027

HSP90AB1 (UniProt P08238)
NP40-soluble protein abundance (concentration: 1mM): 1.02 ± 0.026 | NP40-soluble protein abundance (concentration: 2mM): 0.964 ± 0.056 | NP40-soluble protein abundance (concentration: 4mM): 0.99 ± 0.017 | NP40-soluble protein abundance (concentration: 6mM): 1.05 ± 0.052 | NP40-soluble protein abundance (concentration: 8mM): 1.04 ± 0.011 | NP40-soluble protein abundance (concentration: 10mM): 1.03 ± 0.035

TSPAN13 (UniProt O95857)
NP40-soluble protein abundance (concentration: 1mM): 0.986 ± 0.022 | NP40-soluble protein abundance (concentration: 2mM): 1.04 ± 0.051 | NP40-soluble protein abundance (concentration: 4mM): 0.982 ± 0.015 | NP40-soluble protein abundance (concentration: 6mM): 0.964 ± 0.018 | NP40-soluble protein abundance (concentration: 8mM): 0.972 ± 0.03 | NP40-soluble protein abundance (concentration: 10mM): 0.988 ± 0.047

HARS (UniProt P12081)
NP40-soluble protein abundance (concentration: 1mM): 0.974 ± 0.014 | NP40-soluble protein abundance (concentration: 2mM): 0.935 ± 0.042 | NP40-soluble protein abundance (concentration: 4mM): 0.9579 ± 0.0065 | NP40-soluble protein abundance (concentration: 6mM): 0.999 ± 0.041 | NP40-soluble protein abundance (concentration: 8mM): 0.979 ± 0.029 | NP40-soluble protein abundance (concentration: 10mM): 0.979 ± 0.039

MTHFD2 (UniProt P13995)
NP40-soluble protein abundance (concentration: 1mM): 1.06 ± 0.013 | NP40-soluble protein abundance (concentration: 2mM): 1.06 ± 0.012 | NP40-soluble protein abundance (concentration: 4mM): 1.06 ± 0.029 | NP40-soluble protein abundance (concentration: 6mM): 1.03 ± 0.033 | NP40-soluble protein abundance (concentration: 8mM): 1.05 ± 0.012 | NP40-soluble protein abundance (concentration: 10mM): 1.03 ± 0.04

UniProt P01112
NP40-soluble protein abundance (concentration: 1mM): 1.06 ± 0.026 | NP40-soluble protein abundance (concentration: 2mM): 1.04 ± 0.016 | NP40-soluble protein abundance (concentration: 4mM): 1.03 ± 0.021 | NP40-soluble protein abundance (concentration: 6mM): 1 ± 0.062 | NP40-soluble protein abundance (concentration: 8mM): 1.06 ± 0.021 | NP40-soluble protein abundance (concentration: 10mM): 1.01 ± 0.025

UniProt P08236 and related entries
NP40-soluble protein abundance (concentration: 1mM): 0.95 ± 0.025 | NP40-soluble protein abundance (concentration: 2mM): 0.934 ± 0.019 | NP40-soluble protein abundance (concentration: 4mM): 0.997 ± 0.07 | NP40-soluble protein abundance (concentration: 6mM): 1.01 ± 0.046 | NP40-soluble protein abundance (concentration: 8mM): 1.03 ± 0.032 | NP40-soluble protein abundance (concentration: 10mM): 1.01 ± 0.067
